# Assay results as given in PubChem BioAssay AID1347423 (Functional Genomics Laboratory (NCATS/FGL), 2020).
# Among all 52,000 sequences or so, about 210 (0.4%) were called active.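 How the source made its calls: active means gene whose silencing raises cell survival under the drug, median off-target-corrected z-score across its silencing RNAs 2 or more; inactive means the rest.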 Some of the results follow.
# Test: Resistance to Poly (ADP-Ribose) Polymerase inhibitor: Gene Identification via Genome-wide siRNA Screen
# Settings: mouse BRCA2 R2336H ES cells, olaparib, CellTiter-Glo viability; active compounds read high
# How it was run: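 Genome-wide siRNA screen (3 siRNAs/gene, 20 nM) in mouse ES cells carrying hypomorphic BRCA2 R2336H; olaparib 500 nM added 48 h post-transfection, CellTiter-Glo viability 72 h later. Normalized to plate-median negative control; MAD z-scores, gene median, seed-adjusted.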
row,Sequence,z-score
1,GCAAACCCACACGAAGCAATT against BC043934,inactive: -0.334
2,GGAGGUGUUGGCUCACAACTT against 8430419L09Rik,inactive: 2.14
3,GGUUCACUCUGAAGACACCTT against Pkig,inactive: -1.91
4,GGCAAUUGUGUAUCAAUAUTT against Acadl,inactive: -0.573
5,GGGCGAAAGCCAAUUUUAGTT against Ddx3y,inactive: 1.18
6,UGUCCAACAAGCUCUGUACTT against Olfr202,inactive: -1.7
7,GGACAUUGUCUACAAGUUGTT against Rnf110,inactive: -1.62
8,CCUGUUCACAACUUUCCUATT against Olfr1241,inactive: 1.31
9,GGCUUUGUGGACUUAAUUATT against D630003K02Rik,inactive: 2.9
10,GGUUUUACCAGAAAUUCAGTT against Lactb2,inactive: 0.321
11,GGACUUUCUAAGGGUAAAATT against Luzp1,inactive: 1.18
12,GGGACAGGUUGAGGUCUAUTT against V1rf5,inactive: -2.11
13,CGCUGAAGUCUUUUCACAATT against Baiap2,inactive: 0.843
14,GCCUUUGCAUGGCAGUCUATT against BC012278,inactive: -1.07
15,GCAGAUAGUUUUGUAACACTT against A830080D01Rik,inactive: -0.987
16,CCAUAGAGCUAAGUUAUUGTT against 2410014A08Rik,inactive: -0.862
17,GGAUGACUUUGAGUGUGUGTT against AW210570,inactive: -0.145
18,CCAAUUGAGGCUGACGUGATT against Dld,inactive: -0.918
19,GCUUUACUCCCUAAAUUCATT against Dmrt3,inactive: 0.221
20,CCAGCUGUUCGCAAAAAAATT against Zfp265,inactive: 0.93
21,GGCCAACCUAAGUCUCAUATT against B830017H08Rik,inactive: -0.26
22,GGUGGUAAAGAUUACAUCUTT against 1110005A23Rik,inactive: -0.538

row,Sequence,z-score
1,GGCGUGUAUGUCAAAAAUATT against Grip1,inactive: 0.555
2,GGCUAUUUUGGGACGGCUUTT against Slc16a14,inactive: -0.218
3,GGACAAAAUACGUGAUAUUTT against Bcmo1,inactive: -0.621
4,GGAUAUGGAGAGUCAUGUGTT against Pcqap,inactive: 0.0423
5,GGAGGAAAAUGUCCUUGUUTT against Pth,inactive: -0.885
6,CCUCAUCACACAGGACCCATT against 8430411H09Rik,inactive: -1.46
7,GGAAAGGUCAAGAGAAUUUTT against Strn3,inactive: 1.02
8,GGACAAGCUGAGGUGAAAATT against 4932425I24Rik,inactive: -1.23
9,GGGAUUCUGCUGGCUAUGATT against Olfr641,inactive: -2.48
10,GGUAGAUAAUGAAGACAUCTT against Frk,inactive: 0.0585
11,GGAAGUGCUAAAGAAGUACTT against Dtx4,inactive: 0.371
12,GGCCUUUAUUCUAUGCAGUTT against Htr3a,inactive: 0.27
13,GCUAGGUGCUGCUACGAAATT against Gm720,inactive: 0.591
14,CCUCAAUCGGACCUGUAUUTT against Dstn,inactive: -0.635
15,GCCUCUAUUCUACACCACATT against AI428855,inactive: -0.104
16,GAGAAACUCUGUGAAUAUATT against Zfp97,inactive: 0.731
17,GGAGAACAUUCAGGUGACATT against Pdgfd,inactive: -0.258
18,GGCUCAACCAAGAAAGGCUTT against 4930591A17Rik,inactive: -0.211
19,CCCAAAGGGUCAAGAUAAUTT against Hmgcr,inactive: 0.182
20,GGCAAAAGCAAGCUCACAGTT against Pctk1,inactive: -0.243
21,GGAAAUUUACUCAAGAAGCTT against Trpc4ap,inactive: -0.66
22,GGCCCAGUCCGAUAUUCUATT against Phxr4,inactive: -0.793

row,Sequence,z-score
1,GCUGGUCCUAUCUGUGCUUTT against Olfr1099,inactive: -1.97
2,GCUCCUCGUCUCAUGAUAATT against Smc4l1,inactive: -0.723
3,GCCUAUGAUUUACUGGAUCTT against Oas1b,inactive: -0.943
4,GGCGGAAUACCCAAAAAUATT against Cdkal1,inactive: -0.0838
5,GGCUAUUUGUUACACCGUCTT against 0610041B22Rik,inactive: 0.312
6,GGCAACUGUUACUUUUAAUTT against 2810046L04Rik,inactive: 0.303
7,CCAGAAGUGAUCGCCUCUUTT against D930016N04Rik,inactive: 1.42
8,GUUACUGCGUGGACUGUGUTT against C730034F03Rik,inactive: -0.937
9,GGAAUGUCAAUCUUGAGAGTT against 2300003P22Rik,inactive: -1
10,GGUGCGUAUAGCUUUCCGATT against Fbxo46,inactive: -0.28
11,CGAAGAUUAAUUUUGCUCATT against Lrrtm2,inactive: 0.597
12,CCUCUAUCGAGGUUCGUUCTT against Hspa5bp1,inactive: 1.18
13,GGAGACUUUGUCGUGUUUATT against D3Ertd300e,inactive: 0.256
14,GGAUCCUUCGAAUCCUGAATT against Cst11,inactive: -1.97
15,GGCUUACCUGGUCUACUCCTT against Wnt8b,inactive: -1.64
16,GCUUACCUGCUGUCUUAAUTT against F630003A18Rik,inactive: -2.14
17,CCGGAGUUGAAACCUAAAATT against Nsbp1,inactive: -0.0297
18,GGACACAGACAUCCUCUUGTT against Sult5a1,inactive: -2.39
19,CCUAGUACUUCGAAGAAAGTT against 6430550H21Rik,inactive: 1.07
20,CGAAAGGUAGUGCUUUCCATT against Hipk3,inactive: -1.54
21,GGACCCAAAACUACAGCCUTT against Olfr850,inactive: 0.0168
22,GGGUGUCAUAUCACAUAUGTT against Dpt,inactive: 0.474

# 2 entries picked at random from those above, as already listed:
row,Sequence,z-score
12,CCUCUAUCGAGGUUCGUUCTT against Hspa5bp1,inactive: 1.18
8,GUUACUGCGUGGACUGUGUTT against C730034F03Rik,inactive: -0.937
